Results deposited as PubChem BioAssay AID1259314 (Drosophila RNAi Screening Center, 2017)
This is an unselected part of about 3,100 deposited reagents. 289 of all reagents (9.3%) count as active. 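Active includes both higher and lower ATP than plate average; check the z-score sign for direction.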 Unmarked entries are inactive. The numbers tell different reagents against one gene apart. A plus sign joins genes that one reagent is predicted to hit. Reagent sequences are not shown. Not given: the amount of reagent.

- Test: 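Genes whose knock-down alters cell survival under toxic manganese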 (primary screen)
- System: Drosophila S2R+ cells
- Reagents: long dsRNA against Drosophila genes
- Duration: 5 days (4 days knock-down, then 1 day metal exposure)
- Conditions: manganese chloride added to 15 mM for 24 hours
- Read-out: 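Cellular ATP measured by luciferase light, scaled to the plate mean, averaged across replicates and z-scored over plates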
- Scale: mean ATP z-score: higher = more ATP than the plate average, more viable cells under manganese
- Active means: 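Called active when the mean ATP z-score is above 1.5 or below -1.5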
- Calls: active = strong ATP change, up or down; inactive = no strong ATP change

{"gene":"Tmhs (Tetraspan membrane protein in hair cell stereocilia)","dsRNA no.":1,"mean ATP z-score":-1.15}
{"gene":"tipE (temperature-induced paralytic E)","dsRNA no.":1,"mean ATP z-score":-1.13}
{"gene":"tipE (temperature-induced paralytic E)","dsRNA no.":2,"mean ATP z-score":0.238}
{"gene":"Tom7 (Translocase of outer membrane 7)","dsRNA no.":1,"mean ATP z-score":-0.238}
{"gene":"Tom7 (Translocase of outer membrane 7)","dsRNA no.":2,"mean ATP z-score":-0.882}
{"gene":"ppk16 (pickpocket 16)","dsRNA no.":1,"mean ATP z-score":0.201}
{"gene":"CG32669","dsRNA no.":1,"mean ATP z-score":-0.378}
{"gene":"Gfrl (Glial cell line-derived neurotrophic family receptor-like)","dsRNA no.":1,"mean ATP z-score":0.192}
{"gene":"Gfrl (Glial cell line-derived neurotrophic family receptor-like)","dsRNA no.":2,"mean ATP z-score":0.718}
{"gene":"Ac78C (Adenylyl cyclase 78C)","dsRNA no.":1,"mean ATP z-score":"-1.85 (active)"}
{"gene":"Ac78C (Adenylyl cyclase 78C)","dsRNA no.":2,"mean ATP z-score":0.42}
{"gene":"Zip88E (Zinc/iron regulated transporter-related protein 88E)","dsRNA no.":1,"mean ATP z-score":-0.48}
{"gene":"Zip88E (Zinc/iron regulated transporter-related protein 88E)","dsRNA no.":2,"mean ATP z-score":-0.178}
{"gene":"Or85d (Odorant receptor 85d)","dsRNA no.":1,"mean ATP z-score":-0.199}
{"gene":"Or85d (Odorant receptor 85d)","dsRNA no.":2,"mean ATP z-score":0.721}
{"gene":"CG6282","dsRNA no.":1,"mean ATP z-score":0.289}
{"gene":"CG6790","dsRNA no.":1,"mean ATP z-score":0.032}
{"gene":"Or33b (Odorant receptor 33b)","dsRNA no.":1,"mean ATP z-score":-0.582}
{"gene":"CG1909","dsRNA no.":1,"mean ATP z-score":0.713}
{"gene":"CG1909","dsRNA no.":2,"mean ATP z-score":0.0923}
{"gene":"18w (18 wheeler)","dsRNA no.":1,"mean ATP z-score":0.35}
{"gene":"Gp210 (Glycoprotein 210 kDa)","dsRNA no.":1,"mean ATP z-score":-0.414}
{"gene":"Gp210 (Glycoprotein 210 kDa)","dsRNA no.":2,"mean ATP z-score":-0.0517}
{"gene":"bib + lncRNA:CR13130","dsRNA no.":1,"mean ATP z-score":-0.625}
{"gene":"CG3702","dsRNA no.":1,"mean ATP z-score":-0.307}
{"gene":"CG3702","dsRNA no.":2,"mean ATP z-score":0.621}
{"gene":"Tehao","dsRNA no.":1,"mean ATP z-score":-0.0502}
{"gene":"Tehao","dsRNA no.":2,"mean ATP z-score":0.133}
{"gene":"Sdr (Secreted decoy of InR)","dsRNA no.":1,"mean ATP z-score":-0.511}
{"gene":"Sdr (Secreted decoy of InR)","dsRNA no.":2,"mean ATP z-score":0.218}
{"gene":"Sdr (Secreted decoy of InR)","dsRNA no.":3,"mean ATP z-score":0.33}
{"gene":"CG3149","dsRNA no.":1,"mean ATP z-score":1.1}
{"gene":"CG3149","dsRNA no.":2,"mean ATP z-score":-0.287}
{"gene":"sand (sandman)","dsRNA no.":1,"mean ATP z-score":0.155}
{"gene":"sand (sandman)","dsRNA no.":2,"mean ATP z-score":-0.0617}
{"gene":"Ent2 (Equilibrative nucleoside transporter 2)","dsRNA no.":1,"mean ATP z-score":-1.48}
{"gene":"Ent2 (Equilibrative nucleoside transporter 2)","dsRNA no.":2,"mean ATP z-score":1.18}
{"gene":"OXA1L (OXA1L mitochondrial inner membrane protein)","dsRNA no.":1,"mean ATP z-score":-1.14}
{"gene":"OXA1L (OXA1L mitochondrial inner membrane protein)","dsRNA no.":2,"mean ATP z-score":"-1.7 (active)"}
{"gene":"CG14767","dsRNA no.":1,"mean ATP z-score":"2.11 (active)"}
{"gene":"CG14767","dsRNA no.":2,"mean ATP z-score":0.117}
{"gene":"Gr43a (Gustatory receptor 43a)","dsRNA no.":1,"mean ATP z-score":-0.275}
{"gene":"Gr43a (Gustatory receptor 43a)","dsRNA no.":2,"mean ATP z-score":1.36}
{"gene":"CG8925","dsRNA no.":1,"mean ATP z-score":-0.00431}
{"gene":"CG8925","dsRNA no.":2,"mean ATP z-score":-0.428}
{"gene":"CCHa1-R (CCHamide-1 receptor)","dsRNA no.":1,"mean ATP z-score":0.429}
{"gene":"CCHa1-R (CCHamide-1 receptor)","dsRNA no.":2,"mean ATP z-score":0.74}

Taken from above.
Ent2 (Equilibrative nucleoside transporter 2) #1, mean ATP z-score: -1.48
Under “mean ATP z-score”, Sdr (Secreted decoy of InR) #2 reads 0.218
Gr43a (Gustatory receptor 43a) #2, mean ATP z-score = 1.36
Ac78C (Adenylyl cyclase 78C) #2, mean ATP z-score → 0.42
Value of CG3702 #2 in “mean ATP z-score”: 0.621
Value for Tmhs (Tetraspan membrane protein in hair cell stereocilia) in “mean ATP z-score”: -1.15
